{"source": "paper PMC5892887", "biological_target": "T1, *III (core domain) (bacteriophage T4) (UniProt P03695)", "T1 sequence (looked up)": "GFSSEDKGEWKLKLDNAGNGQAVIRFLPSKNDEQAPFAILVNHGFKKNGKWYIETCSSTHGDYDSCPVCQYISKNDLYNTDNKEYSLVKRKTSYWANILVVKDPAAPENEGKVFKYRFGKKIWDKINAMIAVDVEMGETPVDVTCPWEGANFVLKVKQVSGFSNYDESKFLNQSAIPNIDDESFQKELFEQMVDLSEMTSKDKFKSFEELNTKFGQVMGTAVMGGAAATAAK", "assay": "competition with a labelled probe", "details": "inhibits EDC/NHS cross-linking of C-domain to core, ~50% at p(dT)7:core ratio 1; 5' phosphate; DNA stretching: 0.1 M Na+; recombinant protein; residues 22-253; single-stranded DNA", "note": "For at least one entry, the source does not settle the construct or the ends of the probe. At least one verdict rests on a figure or table, not on a statement of the authors. Where a protein sequence is shown, tags need not be part of it."}
{"sequence": "TTTTTTT [p(dT)7]", "values": [{"measurement": "binding result", "result": "binds"}]}
